# Test results as given in the supplement of paper PMC4604168 (melanoma cell lines).
# Some of the results follow. Single values are uncertain, as repeats are few or missing.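 Cells were imaged in 1,536-well plates, and nuclei stained with an antibody against cleaved PARP were counted against all DNA-stained nuclei to give the apoptosis fraction. Screening doses were chosen to leave most cells alive, and resting and induced cleaved-PARP levels differ strongly between cell lines.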
# System: CBRC017 (line from a melanoma biopsy)
# Assay: cleaved PARP positive nuclei fraction relative to DMSO control; melanoma cells; higher = more apoptosis
# Conditions: library dose: low library concentration; 72 h
row,Structure (SMILES),cleaved PARP positive nuclei fraction
1,"Cn1sc(=O)n(Cc2ccccc2)c1=O + CC(C)C[C@H](NC(=O)[C@H](Cc1ccccc1)NC(=O)c1cnccn1)B(O)O [Bortezomib] (first compound 0.4 µM, partner dose 0.001 µM)",133%
2,"COc1ccc(C2=N[C@@H](c3ccc(Cl)cc3)[C@@H](c3ccc(Cl)cc3)N2C(=O)N2CCNC(=O)C2)c(OC(C)C)c1 [Nutlin-3] + C=CCNC1=C2C[C@@H](C)C[C@H](OC)[C@H](O)[C@@H](C)/C=C(\C)[C@H](OC(N)=O)[C@@H](OC)/C=C\C=C(/C)C(=O)NC(=CC1=O)C2=O [Tanespimycin] (first compound 0.1 µM, partner dose 0.002 µM)",134%
3,"C[C@@H](N)c1ccc(C(=O)Nc2ccnc3[nH]ccc23)cc1 + CC(C)C[C@H](NC(=O)[C@H](Cc1ccccc1)NC(=O)c1cnccn1)B(O)O [Bortezomib] (first compound 0.4 µM, partner dose 0.001 µM)",278%
4,"C[C@]1(O)C[C@@H](c2nc(-c3ccc4ccc(-c5ccccc5)nc4c3)c3c(N)nccn32)C1 + CS(=O)(=O)CCNCc1ccc(-c2ccc3ncnc(Nc4ccc(OCc5cccc(F)c5)c(Cl)c4)c3c2)o1 [lapatinib] (first compound 0.4 µM, partner dose 0.8 µM)",84%
5,"Cn1sc(=O)n(Cc2ccccc2)c1=O + CNC(=O)c1cc(Oc2ccc(NC(=O)Nc3ccc(Cl)c(C(F)(F)F)c3)cc2)ccn1 [sorafenib] (first compound 0.4 µM, partner dose 0.4 µM)",118%
